Test results as given in paper PMC3326064.
No constants are given. Whether binding was seen depends on the method and setting.

Target: T1, soybean 2S albumin large subunit (soybean) (UniProt P19594)
T1 sequence: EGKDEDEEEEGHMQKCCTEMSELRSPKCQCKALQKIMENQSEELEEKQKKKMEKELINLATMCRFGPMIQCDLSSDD
Assay: condition: only with the reducing agents BME, TCEP or DTT; SDS-PAGE after treatment with reducing agents; purified lunasin-containing complex (15.5 ug) treated for 1 hour at room temperature with BME (14.3-143 mM), TCEP (1-10 mM) or DTT (0.2-2 mM); both purified

binding: no binding
Binder: SKWQHQQDSCRKQLQGVNLTPCEKHIMEKIQGRGDDDDDDDDDN [lunasin purified from soybean white flake (44 amino acids, with C-terminal asparagine)]
